Measurements as given in US20250051314A1, “SMALL MOLECULE INHIBITORS OF INTERFERON GAMMA SIGNALING” (INSTITUT CURIE, priority 2021, published 2025).

test system: Hela cells; test: Cell viability assay (CellTiter-Blue); format: cell-based; conditions: IC50 of Cell Viability/IC50 of pSTAT1 inhibition
Procedure: Cell viability assay was carried out by plating 10,000 cells/well in 96-well plates. 3-Fold 8 serial dilutions of the compounds from 3 mM were made in DMEM. HeLa cells were treated for 24 h with the compounds of different concentrations made. In case of preincubation with IFNγ, 6000 U·ml^−1 of IFNγ per concentration of compounds were used and incubated for 20 min. According to manufacturer's protocol,
CellTiter-Blue® reagent was added after 24 h treatment and cells were incubated for 3 h before recording fluorescence intensities (λex. 560/20 nm; λem. 590/10 nm) using a Perkin Elmer Wallac 1420 Victor2 Microplate Reader.

| SMILES | Therapeutic index |
| --- | --- |
| C#Cc1ccc(C=C2C(=O)NC(=S)N(c3cccc(Br)c3)C2=O)o1 [Compound 5a, (1-(3-bromophenyl)-5-((5-ethynylfuran-2-yl)methylene)-2-thioxodihydropyrimidine-4,6(1H,5H)-dione)] | 307 |
| C#Cc1ccc(C=C2C(=O)NC(=S)N(c3cccc(F)c3)C2=O)o1 [Compound 5b, 5-((5-ethynylfuran-2-yl)methylene)-1-(3-fluorophenyl)-2-thioxodihydropyrimidine-4,6(1H,5H)-dione] | 16 |
| C#Cc1ccc(C=C2C(=O)N(c3cccc(Br)c3)C(=S)N(c3cccc(Br)c3)C2=O)o1 [Compound 5j, 1,3-bis(3-bromophenyl)-5-((5-ethynylfuran-2-yl)methylene)-2-thioxodihydropyrimidine-4,6(1H,5H)-dione] | 66.58 |
| C#Cc1ccc(C=C2C(=O)N(c3cccc(F)c3)C(=S)N(c3cccc(F)c3)C2=O)o1 [Compound 5k, 5-((5-ethynylfuran-2-yl)methylene)-1,3-bis(3-fluorophenyl)-2-thioxodihydropyrimidine-4,6(1H,5H)-dione] | 16 |
